B1: FLAG-SHLD3^C (residues 126-250) (domain or fragment, UniProt Q6ZNX1 126-250)
chain: QHKRRSWSISLPSNNCTKNVSPLSKKLQDSLKALNLHSLYRARWTIEHTICNSQTLEDIWTKLNQIIRHNELPSCNATIQRHLGQIWVFCDIMYCEYVGSLLKGRLALTGKINLFVHKYGVIFSM
B2: FLAG-SHLD3 (full-length) (protein, UniProt Q6ZNX1 1-250)
chain: MTTEVILHYRPCESDPTQLPKIAEKAIQDFPTRPLSRFIPWFPYDGSKLPLRPKRSPPVISEEAAEDVKQYLTISEHDAKSHSYDCTVDLLEFQPSLKKQHLTWSHTLKEQTNSGNLGKQSEKGKQHKRRSWSISLPSNNCTKNVSPLSKKLQDSLKALNLHSLYRARWTIEHTICNSQTLEDIWTKLNQIIRHNELPSCNATIQRHLGQIWVFCDIMYCEYVGSLLKGRLALTGKINLFVHKYGVIFSM
B3: FLAG-SHLD3^C (residues 126-250) N201A (domain or fragment, UniProt Q6ZNX1 126-250)
chain: QHKRRSWSISLPSNNCTKNVSPLSKKLQDSLKALNLHSLYRARWTIEHTICNSQTLEDIWTKLNQIIRHNELPSCAATIQRHLGQIWVFCDIMYCEYVGSLLKGRLALTGKINLFVHKYGVIFSM
B4: FLAG-SHLD3^C (residues 126-250) D216A (domain or fragment, UniProt Q6ZNX1 126-250)
chain: QHKRRSWSISLPSNNCTKNVSPLSKKLQDSLKALNLHSLYRARWTIEHTICNSQTLEDIWTKLNQIIRHNELPSCNATIQRHLGQIWVFCAIMYCEYVGSLLKGRLALTGKINLFVHKYGVIFSM
B5: FLAG-SHLD3^C (residues 126-250) R166A (domain or fragment, UniProt Q6ZNX1 126-250)
chain: QHKRRSWSISLPSNNCTKNVSPLSKKLQDSLKALNLHSLYAARWTIEHTICNSQTLEDIWTKLNQIIRHNELPSCNATIQRHLGQIWVFCDIMYCEYVGSLLKGRLALTGKINLFVHKYGVIFSM
B6: FLAG-SHLD3^C (residues 126-250) W132A (domain or fragment, UniProt Q6ZNX1 126-250)
chain: QHKRRSASISLPSNNCTKNVSPLSKKLQDSLKALNLHSLYRARWTIEHTICNSQTLEDIWTKLNQIIRHNELPSCNATIQRHLGQIWVFCDIMYCEYVGSLLKGRLALTGKINLFVHKYGVIFSM
B7: FLAG-SHLD3^C (residues 126-250) S131A (domain or fragment, UniProt Q6ZNX1 126-250)
chain: QHKRRAWSISLPSNNCTKNVSPLSKKLQDSLKALNLHSLYRARWTIEHTICNSQTLEDIWTKLNQIIRHNELPSCNATIQRHLGQIWVFCDIMYCEYVGSLLKGRLALTGKINLFVHKYGVIFSM
B8: eGFP-SHLD3^C (residues 126-250) D216A (domain or fragment, UniProt Q6ZNX1 126-250)
chain: QHKRRSWSISLPSNNCTKNVSPLSKKLQDSLKALNLHSLYRARWTIEHTICNSQTLEDIWTKLNQIIRHNELPSCNATIQRHLGQIWVFCAIMYCEYVGSLLKGRLALTGKINLFVHKYGVIFSM
B9: eGFP-SHLD3^C (residues 126-250) N201A (domain or fragment, UniProt Q6ZNX1 126-250)
chain: QHKRRSWSISLPSNNCTKNVSPLSKKLQDSLKALNLHSLYRARWTIEHTICNSQTLEDIWTKLNQIIRHNELPSCAATIQRHLGQIWVFCDIMYCEYVGSLLKGRLALTGKINLFVHKYGVIFSM
B10: eGFP-SHLD3^C (residues 126-250) R166A (domain or fragment, UniProt Q6ZNX1 126-250)
chain: QHKRRSWSISLPSNNCTKNVSPLSKKLQDSLKALNLHSLYAARWTIEHTICNSQTLEDIWTKLNQIIRHNELPSCNATIQRHLGQIWVFCDIMYCEYVGSLLKGRLALTGKINLFVHKYGVIFSM
B11: eGFP-SHLD3^C (residues 126-250) W132A (domain or fragment, UniProt Q6ZNX1 126-250)
chain: QHKRRSASISLPSNNCTKNVSPLSKKLQDSLKALNLHSLYRARWTIEHTICNSQTLEDIWTKLNQIIRHNELPSCNATIQRHLGQIWVFCDIMYCEYVGSLLKGRLALTGKINLFVHKYGVIFSM
B12: eGFP-SHLD3^C (residues 126-250) (domain or fragment, UniProt Q6ZNX1 126-250)
chain: QHKRRSWSISLPSNNCTKNVSPLSKKLQDSLKALNLHSLYRARWTIEHTICNSQTLEDIWTKLNQIIRHNELPSCNATIQRHLGQIWVFCDIMYCEYVGSLLKGRLALTGKINLFVHKYGVIFSM
B13: eGFP-SHLD3^C (residues 126-250) S131A (domain or fragment, UniProt Q6ZNX1 126-250)
chain: QHKRRAWSISLPSNNCTKNVSPLSKKLQDSLKALNLHSLYRARWTIEHTICNSQTLEDIWTKLNQIIRHNELPSCNATIQRHLGQIWVFCDIMYCEYVGSLLKGRLALTGKINLFVHKYGVIFSM
B14: eGFP-SHLD3^N (residues 2-125) (domain or fragment, UniProt Q6ZNX1 2-125)
chain: TTEVILHYRPCESDPTQLPKIAEKAIQDFPTRPLSRFIPWFPYDGSKLPLRPKRSPPVISEEAAEDVKQYLTISEHDAKSHSYDCTVDLLEFQPSLKKQHLTWSHTLKEQTNSGNLGKQSEKGK

Results are given in words; binding and its absence hold for the method and conditions named. For part of these data: In cells and extracts the contact can be indirect. Some binding calls cover weakened binding; strength is not graded here. Sequences can lack the tags named with a protein.

In the first experiment the target is T1, Strep-RIF1 (residues 1-980) R36A (human) (UniProt Q5UIP0).
T1 sequence: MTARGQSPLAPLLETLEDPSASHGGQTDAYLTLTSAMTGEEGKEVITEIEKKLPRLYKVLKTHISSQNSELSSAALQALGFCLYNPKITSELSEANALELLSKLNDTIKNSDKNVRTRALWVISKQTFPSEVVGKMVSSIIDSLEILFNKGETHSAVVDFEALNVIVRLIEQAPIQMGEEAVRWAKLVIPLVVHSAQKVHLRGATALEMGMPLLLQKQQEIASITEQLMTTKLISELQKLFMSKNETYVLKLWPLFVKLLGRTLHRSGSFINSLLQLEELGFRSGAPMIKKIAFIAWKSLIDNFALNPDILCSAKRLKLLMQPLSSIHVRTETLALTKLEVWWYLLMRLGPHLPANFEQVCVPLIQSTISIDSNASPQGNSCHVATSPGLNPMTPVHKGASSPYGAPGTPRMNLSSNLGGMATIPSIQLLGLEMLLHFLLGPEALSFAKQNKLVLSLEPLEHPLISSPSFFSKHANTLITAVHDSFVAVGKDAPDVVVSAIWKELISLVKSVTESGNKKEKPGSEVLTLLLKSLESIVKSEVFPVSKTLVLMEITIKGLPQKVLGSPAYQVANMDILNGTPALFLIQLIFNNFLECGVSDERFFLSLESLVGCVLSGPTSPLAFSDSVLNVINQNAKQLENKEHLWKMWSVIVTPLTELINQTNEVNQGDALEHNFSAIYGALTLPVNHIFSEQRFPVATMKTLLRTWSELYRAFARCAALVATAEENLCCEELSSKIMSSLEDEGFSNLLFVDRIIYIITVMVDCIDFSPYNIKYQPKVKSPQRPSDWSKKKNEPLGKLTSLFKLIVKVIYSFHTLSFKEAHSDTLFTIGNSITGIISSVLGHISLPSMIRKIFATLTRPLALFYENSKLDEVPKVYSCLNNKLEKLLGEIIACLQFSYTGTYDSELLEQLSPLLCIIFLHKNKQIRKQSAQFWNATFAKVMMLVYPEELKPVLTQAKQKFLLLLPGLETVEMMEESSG
The experiment is described as follows: co-IP + pull-down.
For B1, the binding result is reported as “binds”.

Another experiment deals with T2, Strep-tagged human RIF1^N (residues 1-980) (human) (UniProt Q5UIP0).
T2 sequence: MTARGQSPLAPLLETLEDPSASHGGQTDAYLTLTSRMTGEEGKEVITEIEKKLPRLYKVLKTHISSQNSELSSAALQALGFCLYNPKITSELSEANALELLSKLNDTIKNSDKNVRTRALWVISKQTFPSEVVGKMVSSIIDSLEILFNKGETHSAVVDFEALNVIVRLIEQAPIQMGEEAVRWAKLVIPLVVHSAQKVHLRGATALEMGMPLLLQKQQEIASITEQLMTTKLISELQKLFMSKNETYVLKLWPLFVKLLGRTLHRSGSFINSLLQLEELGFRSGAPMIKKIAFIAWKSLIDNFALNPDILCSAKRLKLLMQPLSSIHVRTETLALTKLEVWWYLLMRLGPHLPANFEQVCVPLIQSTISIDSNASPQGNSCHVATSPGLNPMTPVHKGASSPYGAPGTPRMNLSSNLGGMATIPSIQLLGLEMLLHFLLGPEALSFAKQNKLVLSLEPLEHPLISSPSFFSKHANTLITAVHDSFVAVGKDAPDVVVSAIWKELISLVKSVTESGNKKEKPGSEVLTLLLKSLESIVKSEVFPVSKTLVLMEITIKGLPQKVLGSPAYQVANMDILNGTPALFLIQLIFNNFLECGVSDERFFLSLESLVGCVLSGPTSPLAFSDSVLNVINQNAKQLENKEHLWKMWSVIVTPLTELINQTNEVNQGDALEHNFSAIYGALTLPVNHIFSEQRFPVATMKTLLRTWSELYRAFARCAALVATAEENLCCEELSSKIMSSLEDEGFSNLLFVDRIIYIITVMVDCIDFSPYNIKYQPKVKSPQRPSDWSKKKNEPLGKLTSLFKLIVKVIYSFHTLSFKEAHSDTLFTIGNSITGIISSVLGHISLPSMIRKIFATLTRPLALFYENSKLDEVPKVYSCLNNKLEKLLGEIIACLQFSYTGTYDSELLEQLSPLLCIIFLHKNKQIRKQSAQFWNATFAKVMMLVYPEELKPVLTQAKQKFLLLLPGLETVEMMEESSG
Briefly: co-IP + pull-down.
In the case of B2, the binding entry is “binds”.
On the same count and under the same terms, as for B1, the entry is “binds”.
Still for that read-out and setting: the same measure for B3: “binds”; for B4: “binds”.
Take B5: the binding entry is on record as “no binding”.
For B6, the binding result is reported as “binds”.
The same measure, in the same setting: the same measure for B7: “binds”.

The next experiment addresses T3, mCherry-LacR-RIF1^N (residues 1-967) (human) (UniProt Q5UIP0).
T3 sequence: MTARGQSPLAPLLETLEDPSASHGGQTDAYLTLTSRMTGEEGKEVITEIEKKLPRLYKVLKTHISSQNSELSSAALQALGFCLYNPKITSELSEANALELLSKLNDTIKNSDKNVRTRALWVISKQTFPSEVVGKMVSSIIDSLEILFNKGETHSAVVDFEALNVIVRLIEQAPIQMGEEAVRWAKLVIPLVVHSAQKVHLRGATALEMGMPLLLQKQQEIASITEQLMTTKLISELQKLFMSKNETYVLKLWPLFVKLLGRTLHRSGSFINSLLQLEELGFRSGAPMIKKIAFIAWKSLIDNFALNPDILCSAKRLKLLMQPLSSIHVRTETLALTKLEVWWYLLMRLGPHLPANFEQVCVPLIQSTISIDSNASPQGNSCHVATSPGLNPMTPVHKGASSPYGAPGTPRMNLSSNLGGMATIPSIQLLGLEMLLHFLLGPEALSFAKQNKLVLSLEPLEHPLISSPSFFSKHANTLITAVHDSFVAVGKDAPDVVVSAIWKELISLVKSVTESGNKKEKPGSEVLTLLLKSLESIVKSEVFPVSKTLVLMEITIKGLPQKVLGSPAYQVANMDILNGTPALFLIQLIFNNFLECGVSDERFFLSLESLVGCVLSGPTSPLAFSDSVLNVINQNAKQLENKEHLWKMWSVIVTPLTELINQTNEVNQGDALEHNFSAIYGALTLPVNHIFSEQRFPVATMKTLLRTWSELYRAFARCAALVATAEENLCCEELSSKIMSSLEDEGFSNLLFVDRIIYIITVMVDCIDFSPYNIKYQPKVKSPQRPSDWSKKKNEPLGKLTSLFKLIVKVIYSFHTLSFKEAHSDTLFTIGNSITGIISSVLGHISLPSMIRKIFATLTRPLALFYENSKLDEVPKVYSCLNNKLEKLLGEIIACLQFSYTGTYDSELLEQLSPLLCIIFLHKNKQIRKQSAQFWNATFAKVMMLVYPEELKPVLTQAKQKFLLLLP
The experiment is described as follows: LacR/LacO chromatin recruitment assay.
In the case of B8, the binding result is “binds”.
Same read-out and setting: the same measure for B9: “binds”; for B10: “no binding”; for B11: “no binding”.
Same read-out and setting: as for B12, the entry is “binds”.
In the case of B13, the binding result was “binds”.
Same read-out and setting: as for B14, the entry is “no binding”.

Values taken from doi:10.1101/2023.01.12.523815.
